Assay results: PubChem BioAssay AID2685 (National Center for Advancing Translational Sciences (NCATS), 2010)
Some of the results follow. Further columns of the screen follow, without active or inactive calls. The list favours compounds with an active or inconclusive main result. Potencies come from curve fits of mixed quality, noted in brackets.

Test: qHTS Assay for Lipid Storage Modulators in Drosophila S3 Cells;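 for cell number change: cells counted by Cell Tracker Red CMTPX staining in the red channel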
Settings: BODIPY lipid droplet fluorescence, 18-24 h; for cell number change: measured here: cell count max response, cells fed with added oleic acid
Summary of the method: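 Laser-scanning cytometry quantifies lipid droplet accumulation (500–530 nm total intensity; droplet/cell object ratio) in oleic acid-fed (400 uM added) Drosophila S3 cells treated with a concentration series. 20 uM Triacsin C defined 100% inhibition.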

[1] = measured here: cell number channel AC50, cells fed with added oleic acid
[2] = measured here: lipid fluorescence (Fed channel) AC50, cells fed with added oleic acid

Row | SMILES | cell number change [%] | AC50 [1] | AC50 [2]
1 | Cn1c2c(c(=O)n(C)c1=O)CN(CCCN1CCOCC1)CN2 | -164 | 23.1 µM [falling, partial curve] | 23.1 µM [falling, partial curve]
2 | CCOc1ccccc1OC(=O)c1cc2ccccc2oc1=O | -31.4 | 4.11 µM [falling, single point] | –
3 | NC(=O)c1nc(N2CCOCC2)nc(N2CCOCC2)n1 | 4.17 | – | 13 µM [rising, partial curve]
4 | Cc1[nH]c2ccccc2c1SCc1ccccc1 | -3.37 | – | –
5 | CCOC(=O)c1ccc(CNC(=O)Cn2nnc(-c3ccccc3F)n2)o1 | 8.17 | – | 0.116 µM [rising, full curve, poor fit]
6 | CC(C)(C)C1CCC(C(=O)Nc2ccccc2N2CCOCC2)CC1 (stereo not given) | -30.1 | 14.6 µM [falling, partial curve] | 5.8 µM [falling, full curve]
7 | CNC(=O)NC(=S)NC(=O)c1cccc(Cl)c1 | -42.5 | 0.82 µM [falling, full curve] | –
8 | O=C(CSc1nnc(COc2ccc(Cl)cc2)o1)NC1CC2CCC1C2 (stereo not given) | -5.26 | – | –
9 | CCOC(=O)C(=CNc1cc(C)ccc1-n1cccc1)C(=O)OCC | 4.13 | 0.092 µM [rising, full curve, poor fit] | 3.66 µM [rising, single point]
10 | Cc1cc(C)c(NS(=O)(=O)c2c(C)noc2C)c(C)c1 | 0.298 | – | 16.4 µM [rising, single point]
11 | Cc1noc(C)c1CSc1nnc(-c2ccncc2)n1-c1ccc(Cl)c(Cl)c1 | 17.3 | 2.91 µM [rising, single point] | –
12 | CCC(C)[C@H](NC(=O)N1c2ccccc2NC(=O)[C@@H]1C(C)C)C(=O)N[C@@H](Cc1ccccc1)C(=O)O (stereo not given in full) | 18.4 | – | 29.1 µM [rising, single point]
13 | CC(C)c1ccc(NC(=O)COc2ccc(S(=O)(=O)N3CCOCC3)cc2)cc1 | 16.4 | 0.13 µM [falling, full curve, poor fit] | 0.13 µM [falling, full curve, poor fit]
14 | COC(=O)[C@@]12CCCCN1[C@H](c1ccc(-c3cccc(Cl)c3)c(OC)c1)[C@@H]1C(=O)N(C)C(=O)[C@@H]12 | -49.5 | 20.6 µM [falling, partial curve] | 6.51 µM [falling, single point]
15 | O=C(NC1CCCc2ccccc21)C1CCN(S(=O)(=O)c2ccccc2F)CC1 (stereo not given) | -66.7 | 20.6 µM [falling, single point] | –
16 | Cc1cccc(OCCCN2C(=O)C(=O)c3cc(C)ccc32)c1 | -29.9 | – | 9.2 µM [falling, partial curve, poor fit]
17 | O=C(CCOc1ccccc1)Nc1ccc([N+](=O)[O-])cc1 | 21.7 | – | –
18 | O=C(Oc1ccc(-c2nnco2)cc1)c1ccc(F)c(S(=O)(=O)N2CCOCC2)c1 | -5.55 | – | 29.1 µM [rising, single point]

Row | SMILES | cell number change [%] | AC50 [1] | AC50 [2]
19 | CCOC(=O)C1CCN(C(=O)c2oc3ccc4c(c3c2C)C(O)CC2(CCCCC2)O4)CC1 (stereo not given) | -23.9 | – | 5.17 µM [falling, partial curve]
20 | COc1cc(NC(=O)CCS(=O)(=O)c2nc(-c3cccs3)cc(C(F)(F)F)n2)cc(OC)c1OC | -70.9 | 20.6 µM [falling, single point] | 18.4 µM [falling, single point]
21 | O=Cc1ccc2oc3nc4n(c(=O)c3c(=O)c2c1)CCCS4 | -67 | 29.1 µM [falling, single point] | 29.1 µM [falling, single point]
22 | COc1cc(/C=C2/SC(=S)N(Cc3ccccc3)C2=O)ccc1OCC(=O)O | 8.03 | 2.06 µM [rising, partial curve] | 0.731 µM [rising, single point]
23 | CC(OC(=O)Cc1n[nH]c(=O)c2ccccc12)C(=O)Nc1cccc([N+](=O)[O-])c1 (stereo not given) | 24.3 | – | 0.651 µM [rising, single point]
24 | COc1ccc(N=C2C(=Nc3ccc(OC)cc3)N(c3ccc(OC)cc3)C(=S)N2C)cc1 | -88.7 | 4.61 µM [falling, full curve] | 3.26 µM [falling, full curve]
25 | COc1ccc(CNC(=O)c2c(F)c(F)c(F)c(F)c2F)cc1 | 3.09 | – | 29.1 µM [falling, single point]
26 | COc1ccc(C2C3=C(CCCC3=O)Nc3n[nH]c(C)c32)cc1OC (stereo not given) | 30.8 | 9.2 µM [rising, partial curve, poor fit] | –
27 | COc1ccccc1N1CCN(S(=O)(=O)c2cn(C)c(=O)n(C)c2=O)CC1 | – | – | 0.82 µM [falling, full curve, poor fit]
28 | CCOC(=O)NC(CC(=O)O)c1ccc(OC)c(OC)c1 (stereo not given) | 3.1 | – | –
29 | CCCn1c(=S)[nH]c2ccccc2c1=O | 136 | – | 23.1 µM [rising, partial curve]
30 | COc1ccc(C)cc1NC(=O)CNc1ccc(C(C)=O)cc1 | 31.6 | 29.1 µM [rising, single point] | 0.00461 µM [falling, full curve, poor fit]
31 | Cc1ccc(S(=O)(=O)N2CCN(C(=O)c3cccs3)CC2)cc1 | – | – | 0.0731 µM [falling, full curve, poor fit]
32 | CCCCCOc1ccc(C(=O)N(Cc2ccco2)C2CCS(=O)(=O)C2)cc1 (stereo not given) | -11 | – | 6.51 µM [falling, single point]
33 | COc1ccccc1C(=O)Nc1nc2cc3c(cc2s1)OCCO3 | -28.9 | – | 16.4 µM [falling, single point]
34 | O=C(O)CCc1nc2ccccc2n(CCc2ccccc2)c1=O | -10.4 | – | 0.116 µM [rising, single point]
35 | Cn1cc(S(=O)(=O)NC2CCCC2)c(=O)n(C)c1=O | -23.3 | – | 13 µM [falling, partial curve]
36 | Cc1ccc(S(=O)(=O)NCC2CCC(C(=O)NCc3cccnc3)CC2)cc1 (stereo not given) | -85.4 | – | –

One compound at a time (already shown).
COc1ccccc1C(=O)Nc1nc2cc3c(cc2s1)OCCO3 is listed as cell number change [%]: -28.9; AC50 [2]: 16.4 µM [falling, single point]
COc1ccc(C)cc1NC(=O)CNc1ccc(C(C)=O)cc1 is listed as cell number change [%]: 31.6; AC50 [1]: 29.1 µM [rising, single point]; AC50 [2]: 0.00461 µM [falling, full curve, poor fit]
